The values that follow come from paper PMC10423209.

Amino acid sequences for entries named in this document (tags omitted).
UniProt Q15599: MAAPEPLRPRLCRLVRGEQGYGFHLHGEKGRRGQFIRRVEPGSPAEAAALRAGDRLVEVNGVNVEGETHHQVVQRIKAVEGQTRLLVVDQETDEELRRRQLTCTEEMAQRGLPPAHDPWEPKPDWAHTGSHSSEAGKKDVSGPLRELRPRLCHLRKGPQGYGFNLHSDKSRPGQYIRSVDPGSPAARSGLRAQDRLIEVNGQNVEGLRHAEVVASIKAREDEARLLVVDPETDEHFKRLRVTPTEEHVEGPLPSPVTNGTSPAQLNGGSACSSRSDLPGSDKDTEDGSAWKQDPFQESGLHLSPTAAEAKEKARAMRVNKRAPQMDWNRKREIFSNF

The target of the experiment is T1, Flag-SLC26A3 (wild type) (human) (UniProt P40879).
T1 sequence: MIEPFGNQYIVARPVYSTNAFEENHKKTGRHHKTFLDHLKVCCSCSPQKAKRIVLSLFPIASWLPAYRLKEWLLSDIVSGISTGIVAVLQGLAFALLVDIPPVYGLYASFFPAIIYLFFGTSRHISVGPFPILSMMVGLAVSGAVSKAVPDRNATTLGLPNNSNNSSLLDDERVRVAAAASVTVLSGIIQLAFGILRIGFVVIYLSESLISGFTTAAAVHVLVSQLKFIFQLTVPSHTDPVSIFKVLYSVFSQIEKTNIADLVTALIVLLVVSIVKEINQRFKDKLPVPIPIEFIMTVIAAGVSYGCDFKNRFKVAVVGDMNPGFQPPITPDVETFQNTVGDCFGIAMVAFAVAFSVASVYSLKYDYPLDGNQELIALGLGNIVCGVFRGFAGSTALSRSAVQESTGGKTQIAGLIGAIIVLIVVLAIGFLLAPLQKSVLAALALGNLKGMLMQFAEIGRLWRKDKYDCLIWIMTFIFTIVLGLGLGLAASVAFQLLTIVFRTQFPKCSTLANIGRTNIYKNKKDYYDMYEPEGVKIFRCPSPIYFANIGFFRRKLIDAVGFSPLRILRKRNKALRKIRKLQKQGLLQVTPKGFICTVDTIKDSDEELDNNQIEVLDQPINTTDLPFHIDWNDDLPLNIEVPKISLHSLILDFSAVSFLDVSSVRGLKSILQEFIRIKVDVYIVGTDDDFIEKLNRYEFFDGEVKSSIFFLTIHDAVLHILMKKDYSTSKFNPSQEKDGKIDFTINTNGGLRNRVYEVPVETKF
Description: affinity purification with mass spectrometry; Flag-SLC26A3 or empty vector transfected into HEK293T; co-immunoprecipitation with anti-Flag antibody; SDS-PAGE, Coomassie, gel lanes to mass spectrometry.

No constants are given. Whether binding was seen depends on the method and setting. Binding seen in cells or lysates may run through a third protein. Here binding means that the protein was enriched with, or labelled near, the bait; the list need not be complete. Tags and fused reporters may be left off the sequences shown.

Take “endogenous NHERF2 (from UniProt Q15599 1-337)”: the binding result is given as “binds”.
